Hit rate of the full screen: of about 340,000 compounds, about 4,500 (1.3%) were called active. This list was built around the results that the source calls inconclusive (neither active nor inactive); the mix of calls is not that of the screen. Calls come from the whole dose curve; as a rule, active = well fitted inhibition curve with a large enough effect; inconclusive = small, poorly fitted or top-dose-only effect, or another doubt; inactive = no such curve, though single readings can be large or run the other way. A potency beside an inconclusive call is a rough fit, not a confirmed value.
What follows are compounds tested against DNA polymerase beta (Homo sapiens) (UniProt P06746) (assay: qHTS Assay for Inhibitors of DNA Polymerase Beta). Details: Pol beta primer extension/strand displacement, fluorescence kinetic; activity change, negative = inhibition: at 114 µM (top of the series).
Outline: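 Kinetic readout of DNA synthesis with strand displacement by Pol beta. Compound and 10 nM enzyme sit 15 min at room temperature; 50 nM substrate starts the reaction, read immediately and at 10 min.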
% is set by controls: 0 for no effect and ±100 for the full control effect; potency is the fitted concentration of half-maximal effect.

Structure (SMILES) | Potency | activity change, negative = inhibition
O=C(O)Cn1cc(/C=C2\C(=O)NC(=O)N(c3ccc(Br)cc3)C2=O)c2ccccc21 | inactive | –
O=c1[nH]c(=O)n(CCC2=CCCCC2)c(O)c1/C=N/Nc1cccc2ccccc12 | – | inconclusive: -30.5% [inhibitor]
CN(C)CCN=Cc1c(O)n(Cc2ccc3c(c2)OCO3)c(=S)[nH]c1=O | inconclusive: 79.4 µM [inhibitor, single point] | –
CCN1/C(=C\C=C\C2=[N+](CC)c3ccccc3C2(C)C)C(C)(C)c2ccccc21 | active: 25.1 µM | –
O=C(N/N=C/C1C(=O)NC(=S)N(c2ccccc2)C1=O)c1cc(Br)c(O)c(Br)c1 (centres undefined) | inconclusive: 56.2 µM [inhibitor, partial curve, poor fit] | –
N#CC1=C(N)Oc2c(c(=O)oc3ccccc23)C1c1ccc([N+](=O)[O-])o1 (centres undefined) | inconclusive: 2.82 µM [inhibitor, partial curve, poor fit] | –
Oc1ccc(/C=N/NP(=S)(c2ccccc2)c2ccccc2)cc1O | inconclusive: 50.1 µM [inhibitor, partial curve] | –
COc1ccc(C2NCCc3[nH]cnc32)cc1 (centres undefined) | inconclusive: 100 µM [inhibitor, single point] | –
C/C(=N\NC(=O)c1ccncc1)c1c(O)n(Cc2ccccc2)c(=O)[nH]c1=O | inconclusive: 63.1 µM [inhibitor, single point] | –
Cc1ccccc1N1C(=O)NC(=O)/C(=C\c2ccc3c(c2)CCCN3Cc2ccccc2)C1=O | active: 25.1 µM | –
CCOc1cc2c(cc1OCC)-n1cccc1C(c1cccc(F)c1)NC2 (centres undefined) | inconclusive: 39.8 µM [inhibitor, single point] | –
O=c1c2ccccc2nc(CSc2ncnc3nc[nH]c23)n1-c1ccccc1Cl | active: 39.8 µM | –
O=c1oc(Cl)c(Cl)c2ccccc12 | inconclusive: 35.5 µM [inhibitor, partial curve] | –
COC(=O)c1c(C)[nH]c(C(=O)C(C)[N+]23CCN(CC2)CC3)c1C (centres undefined) | inconclusive: 4.47 µM [inhibitor, full curve, poor fit] | –
O=C1NC(=S)NC(=O)C1=Cc1ccc2c(c1)CCN2CCCCl | – | inconclusive: -86.7% [inhibitor]
N#CC1=C(N)Oc2c(c(=O)sc3ccccc23)C1c1cccnc1 (centres undefined) | inconclusive: 25.1 µM [inhibitor, partial curve, poor fit] | –
CC(C)(C)N1C(=O)NC(=O)/C(=C\c2ccc3c(c2)CCN3CCCCl)C1=O | – | inconclusive: -39.6% [inhibitor]
Cc1ccc(OCCOc2cccc(C=C3C(=O)NC(=O)NC3=O)c2)c(C)c1 | inconclusive: 39.8 µM [inhibitor, partial curve] | –
NC1=C(Br)C(=O)c2ccccc2C1=O | inconclusive: 50.1 µM [inhibitor, partial curve] | –
COc1ccc(OC)c(N2C(=O)/C(=C/c3ccco3)C(=O)NC2=S)c1 | – | inconclusive: -106% [inhibitor]
CC(C)N1C(=O)/C(=C/C=C/c2ccco2)C(=O)N(Cc2ccco2)C1=O | active: 22.4 µM | –
O=[N+]([O-])c1ccc(C2C3C(c4ccccc4)=NC4(CCCC4)N32)cc1 (centres undefined) | inconclusive: 89.1 µM [inhibitor, single point] | –

Full records as entered above.
O=c1c2ccccc2nc(CSc2ncnc3nc[nH]c23)n1-c1ccccc1Cl is listed with Potency: active: 39.8 µM
N#CC1=C(N)Oc2c(c(=O)sc3ccccc23)C1c1cccnc1 (centres undefined) is listed with Potency: inconclusive: 25.1 µM [inhibitor, partial curve, poor fit]
CCN1/C(=C\C=C\C2=[N+](CC)c3ccccc3C2(C)C)C(C)(C)c2ccccc21 is listed with Potency: active: 25.1 µM
O=[N+]([O-])c1ccc(C2C3C(c4ccccc4)=NC4(CCCC4)N32)cc1 (centres undefined) is listed with Potency: inconclusive: 89.1 µM [inhibitor, single point]

Remaining list, next part:

Structure (SMILES) | Potency | activity change, negative = inhibition
CC(C)n1c(=O)c(C=Nc2ccc(Cl)cc2)c(O)n(Cc2ccco2)c1=O | inconclusive: 44.7 µM [inhibitor, partial curve] | –
CC(C)c1ccc(-n2c(O)c(/C=N/NC(=O)c3ccccc3O)c(=O)[nH]c2=S)cc1 | inactive | –
Cc1ccc(-c2nc(N(C)C3CCN(C)CC3)c3ccccc3n2)cc1 | active: 28.2 µM | –
COc1ccc(N=Cc2c(O)n(-c3ccc(C)cc3)c(=O)[nH]c2=O)cc1 | inactive | –
C=C1C(=O)O[C@H]2[C@H]1[C@H](OC(=O)CC(=O)O[C@@H]1C[C@@H](C)[C@@H]3C=CC(=O)[C@@]3(C)[C@H]3OC(=O)C(=C)[C@H]13)C[C@@H](C)[C@H]1C=CC(=O)[C@]12C | active: 50.1 µM | –
CC1(C)OC(c2ccccc2)=C/C(=C/C=C2C(=O)NC(=S)NC2=O)O1 | active: 50.1 µM | –
COc1ccc(OCC#CCN2CCC(C)CC2)cc1 | inconclusive: 63.1 µM [inhibitor, partial curve, poor fit] | –
NC(Cc1cc(O)c(O)cc1O)C(=O)O (centres undefined) | active: 0.112 µM | –
C[C@H]1CCC[C@H](O)CCCCCc2cc(O)cc(O)c2C(=O)O1 | inconclusive: 79.4 µM [inhibitor, single point] | –
Cc1cc(C)nc(NS(=O)(=O)c2ccc(N=Cc3c(O)n(C)c(=O)n(C)c3=O)cc2)n1 | inactive | –
Cn1ncnc2c(=O)n(C)c(=O)nc1-2 | inconclusive: 89.1 µM [inhibitor, single point] | –
CCOCCc1c(O)[nH]c(=S)[nH]c1=O | active: 35.5 µM | –
COc1ccc(N2C(=O)/C(=C/c3ccc(C)o3)C(=O)NC2=S)cc1 | active: 35.5 µM | –
COCCCn1c(N)c(C(=O)NCc2ccco2)c2nc3ccccc3nc21 | inactive | –
C#CCOc1ccc2c(c1)c(C(C)=O)c(C)n2Cc1ccccc1 | inconclusive: 50.1 µM [inhibitor, single point] | –
COc1cc(/C=C/c2nc3ccccc3c(=O)n2-c2ccccc2O)ccc1O | inactive | –
O=C1NC(=O)C(=Cc2cn(CCOc3ccc4c(c3)OCO4)c3ccccc23)C(=O)N1 | inconclusive: 0.158 µM [inhibitor, full curve, poor fit] | –
C[n+]1c2ccccc2nc2ccc(NCCO)cc21 | active: 28.2 µM | –
O=C(O)CC1OCC=C2CN3CCC45C6=CC(=O)C(=O)C([N+](=O)[O-])=C6NC4C1C2CC35 (centres undefined) | inconclusive: 17.8 µM [inhibitor, partial curve] | –
COc1ccc(N2C(=O)NC(=O)/C(=C/c3ccc([N+](=O)[O-])s3)C2=O)cc1 | – | inconclusive: -106% [inhibitor]
O=C(CCn1c(=O)oc2ccccc21)N1CCC2(CC1)OCCO2 | inconclusive: 79.4 µM [inhibitor, single point] | –
